According to PMC6044906:
These are yes or no findings as the source states them, for the method shown. Binding seen in cells or lysates may run through a third protein. Some entries that bind do so weakly or less than the wild type.

Sequences of proteins named here, by UniProt entry; tags and fusion partners are left off.
UniProt Q14318: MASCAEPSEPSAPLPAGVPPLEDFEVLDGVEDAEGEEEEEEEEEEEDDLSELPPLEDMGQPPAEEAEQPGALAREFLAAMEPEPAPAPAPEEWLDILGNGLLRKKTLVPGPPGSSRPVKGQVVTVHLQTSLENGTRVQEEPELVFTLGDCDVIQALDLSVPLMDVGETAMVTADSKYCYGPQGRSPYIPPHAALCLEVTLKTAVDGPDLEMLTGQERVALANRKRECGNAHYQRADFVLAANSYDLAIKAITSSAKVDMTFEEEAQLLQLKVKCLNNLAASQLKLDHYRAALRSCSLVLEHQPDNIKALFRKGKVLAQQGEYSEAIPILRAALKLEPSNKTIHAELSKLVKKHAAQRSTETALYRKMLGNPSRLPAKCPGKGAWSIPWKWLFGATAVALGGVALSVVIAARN
UniProt O75800: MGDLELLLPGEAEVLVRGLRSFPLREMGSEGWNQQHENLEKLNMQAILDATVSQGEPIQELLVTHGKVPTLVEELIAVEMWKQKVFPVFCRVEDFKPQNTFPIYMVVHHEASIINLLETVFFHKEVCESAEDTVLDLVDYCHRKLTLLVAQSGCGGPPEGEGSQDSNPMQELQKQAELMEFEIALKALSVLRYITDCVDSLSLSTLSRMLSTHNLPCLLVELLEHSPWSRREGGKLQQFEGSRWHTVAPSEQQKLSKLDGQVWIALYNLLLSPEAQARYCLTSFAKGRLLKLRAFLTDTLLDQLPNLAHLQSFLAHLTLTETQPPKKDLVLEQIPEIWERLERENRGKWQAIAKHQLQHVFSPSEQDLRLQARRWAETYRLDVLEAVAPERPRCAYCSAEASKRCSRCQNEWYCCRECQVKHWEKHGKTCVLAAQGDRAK
UniProt Q8TE73: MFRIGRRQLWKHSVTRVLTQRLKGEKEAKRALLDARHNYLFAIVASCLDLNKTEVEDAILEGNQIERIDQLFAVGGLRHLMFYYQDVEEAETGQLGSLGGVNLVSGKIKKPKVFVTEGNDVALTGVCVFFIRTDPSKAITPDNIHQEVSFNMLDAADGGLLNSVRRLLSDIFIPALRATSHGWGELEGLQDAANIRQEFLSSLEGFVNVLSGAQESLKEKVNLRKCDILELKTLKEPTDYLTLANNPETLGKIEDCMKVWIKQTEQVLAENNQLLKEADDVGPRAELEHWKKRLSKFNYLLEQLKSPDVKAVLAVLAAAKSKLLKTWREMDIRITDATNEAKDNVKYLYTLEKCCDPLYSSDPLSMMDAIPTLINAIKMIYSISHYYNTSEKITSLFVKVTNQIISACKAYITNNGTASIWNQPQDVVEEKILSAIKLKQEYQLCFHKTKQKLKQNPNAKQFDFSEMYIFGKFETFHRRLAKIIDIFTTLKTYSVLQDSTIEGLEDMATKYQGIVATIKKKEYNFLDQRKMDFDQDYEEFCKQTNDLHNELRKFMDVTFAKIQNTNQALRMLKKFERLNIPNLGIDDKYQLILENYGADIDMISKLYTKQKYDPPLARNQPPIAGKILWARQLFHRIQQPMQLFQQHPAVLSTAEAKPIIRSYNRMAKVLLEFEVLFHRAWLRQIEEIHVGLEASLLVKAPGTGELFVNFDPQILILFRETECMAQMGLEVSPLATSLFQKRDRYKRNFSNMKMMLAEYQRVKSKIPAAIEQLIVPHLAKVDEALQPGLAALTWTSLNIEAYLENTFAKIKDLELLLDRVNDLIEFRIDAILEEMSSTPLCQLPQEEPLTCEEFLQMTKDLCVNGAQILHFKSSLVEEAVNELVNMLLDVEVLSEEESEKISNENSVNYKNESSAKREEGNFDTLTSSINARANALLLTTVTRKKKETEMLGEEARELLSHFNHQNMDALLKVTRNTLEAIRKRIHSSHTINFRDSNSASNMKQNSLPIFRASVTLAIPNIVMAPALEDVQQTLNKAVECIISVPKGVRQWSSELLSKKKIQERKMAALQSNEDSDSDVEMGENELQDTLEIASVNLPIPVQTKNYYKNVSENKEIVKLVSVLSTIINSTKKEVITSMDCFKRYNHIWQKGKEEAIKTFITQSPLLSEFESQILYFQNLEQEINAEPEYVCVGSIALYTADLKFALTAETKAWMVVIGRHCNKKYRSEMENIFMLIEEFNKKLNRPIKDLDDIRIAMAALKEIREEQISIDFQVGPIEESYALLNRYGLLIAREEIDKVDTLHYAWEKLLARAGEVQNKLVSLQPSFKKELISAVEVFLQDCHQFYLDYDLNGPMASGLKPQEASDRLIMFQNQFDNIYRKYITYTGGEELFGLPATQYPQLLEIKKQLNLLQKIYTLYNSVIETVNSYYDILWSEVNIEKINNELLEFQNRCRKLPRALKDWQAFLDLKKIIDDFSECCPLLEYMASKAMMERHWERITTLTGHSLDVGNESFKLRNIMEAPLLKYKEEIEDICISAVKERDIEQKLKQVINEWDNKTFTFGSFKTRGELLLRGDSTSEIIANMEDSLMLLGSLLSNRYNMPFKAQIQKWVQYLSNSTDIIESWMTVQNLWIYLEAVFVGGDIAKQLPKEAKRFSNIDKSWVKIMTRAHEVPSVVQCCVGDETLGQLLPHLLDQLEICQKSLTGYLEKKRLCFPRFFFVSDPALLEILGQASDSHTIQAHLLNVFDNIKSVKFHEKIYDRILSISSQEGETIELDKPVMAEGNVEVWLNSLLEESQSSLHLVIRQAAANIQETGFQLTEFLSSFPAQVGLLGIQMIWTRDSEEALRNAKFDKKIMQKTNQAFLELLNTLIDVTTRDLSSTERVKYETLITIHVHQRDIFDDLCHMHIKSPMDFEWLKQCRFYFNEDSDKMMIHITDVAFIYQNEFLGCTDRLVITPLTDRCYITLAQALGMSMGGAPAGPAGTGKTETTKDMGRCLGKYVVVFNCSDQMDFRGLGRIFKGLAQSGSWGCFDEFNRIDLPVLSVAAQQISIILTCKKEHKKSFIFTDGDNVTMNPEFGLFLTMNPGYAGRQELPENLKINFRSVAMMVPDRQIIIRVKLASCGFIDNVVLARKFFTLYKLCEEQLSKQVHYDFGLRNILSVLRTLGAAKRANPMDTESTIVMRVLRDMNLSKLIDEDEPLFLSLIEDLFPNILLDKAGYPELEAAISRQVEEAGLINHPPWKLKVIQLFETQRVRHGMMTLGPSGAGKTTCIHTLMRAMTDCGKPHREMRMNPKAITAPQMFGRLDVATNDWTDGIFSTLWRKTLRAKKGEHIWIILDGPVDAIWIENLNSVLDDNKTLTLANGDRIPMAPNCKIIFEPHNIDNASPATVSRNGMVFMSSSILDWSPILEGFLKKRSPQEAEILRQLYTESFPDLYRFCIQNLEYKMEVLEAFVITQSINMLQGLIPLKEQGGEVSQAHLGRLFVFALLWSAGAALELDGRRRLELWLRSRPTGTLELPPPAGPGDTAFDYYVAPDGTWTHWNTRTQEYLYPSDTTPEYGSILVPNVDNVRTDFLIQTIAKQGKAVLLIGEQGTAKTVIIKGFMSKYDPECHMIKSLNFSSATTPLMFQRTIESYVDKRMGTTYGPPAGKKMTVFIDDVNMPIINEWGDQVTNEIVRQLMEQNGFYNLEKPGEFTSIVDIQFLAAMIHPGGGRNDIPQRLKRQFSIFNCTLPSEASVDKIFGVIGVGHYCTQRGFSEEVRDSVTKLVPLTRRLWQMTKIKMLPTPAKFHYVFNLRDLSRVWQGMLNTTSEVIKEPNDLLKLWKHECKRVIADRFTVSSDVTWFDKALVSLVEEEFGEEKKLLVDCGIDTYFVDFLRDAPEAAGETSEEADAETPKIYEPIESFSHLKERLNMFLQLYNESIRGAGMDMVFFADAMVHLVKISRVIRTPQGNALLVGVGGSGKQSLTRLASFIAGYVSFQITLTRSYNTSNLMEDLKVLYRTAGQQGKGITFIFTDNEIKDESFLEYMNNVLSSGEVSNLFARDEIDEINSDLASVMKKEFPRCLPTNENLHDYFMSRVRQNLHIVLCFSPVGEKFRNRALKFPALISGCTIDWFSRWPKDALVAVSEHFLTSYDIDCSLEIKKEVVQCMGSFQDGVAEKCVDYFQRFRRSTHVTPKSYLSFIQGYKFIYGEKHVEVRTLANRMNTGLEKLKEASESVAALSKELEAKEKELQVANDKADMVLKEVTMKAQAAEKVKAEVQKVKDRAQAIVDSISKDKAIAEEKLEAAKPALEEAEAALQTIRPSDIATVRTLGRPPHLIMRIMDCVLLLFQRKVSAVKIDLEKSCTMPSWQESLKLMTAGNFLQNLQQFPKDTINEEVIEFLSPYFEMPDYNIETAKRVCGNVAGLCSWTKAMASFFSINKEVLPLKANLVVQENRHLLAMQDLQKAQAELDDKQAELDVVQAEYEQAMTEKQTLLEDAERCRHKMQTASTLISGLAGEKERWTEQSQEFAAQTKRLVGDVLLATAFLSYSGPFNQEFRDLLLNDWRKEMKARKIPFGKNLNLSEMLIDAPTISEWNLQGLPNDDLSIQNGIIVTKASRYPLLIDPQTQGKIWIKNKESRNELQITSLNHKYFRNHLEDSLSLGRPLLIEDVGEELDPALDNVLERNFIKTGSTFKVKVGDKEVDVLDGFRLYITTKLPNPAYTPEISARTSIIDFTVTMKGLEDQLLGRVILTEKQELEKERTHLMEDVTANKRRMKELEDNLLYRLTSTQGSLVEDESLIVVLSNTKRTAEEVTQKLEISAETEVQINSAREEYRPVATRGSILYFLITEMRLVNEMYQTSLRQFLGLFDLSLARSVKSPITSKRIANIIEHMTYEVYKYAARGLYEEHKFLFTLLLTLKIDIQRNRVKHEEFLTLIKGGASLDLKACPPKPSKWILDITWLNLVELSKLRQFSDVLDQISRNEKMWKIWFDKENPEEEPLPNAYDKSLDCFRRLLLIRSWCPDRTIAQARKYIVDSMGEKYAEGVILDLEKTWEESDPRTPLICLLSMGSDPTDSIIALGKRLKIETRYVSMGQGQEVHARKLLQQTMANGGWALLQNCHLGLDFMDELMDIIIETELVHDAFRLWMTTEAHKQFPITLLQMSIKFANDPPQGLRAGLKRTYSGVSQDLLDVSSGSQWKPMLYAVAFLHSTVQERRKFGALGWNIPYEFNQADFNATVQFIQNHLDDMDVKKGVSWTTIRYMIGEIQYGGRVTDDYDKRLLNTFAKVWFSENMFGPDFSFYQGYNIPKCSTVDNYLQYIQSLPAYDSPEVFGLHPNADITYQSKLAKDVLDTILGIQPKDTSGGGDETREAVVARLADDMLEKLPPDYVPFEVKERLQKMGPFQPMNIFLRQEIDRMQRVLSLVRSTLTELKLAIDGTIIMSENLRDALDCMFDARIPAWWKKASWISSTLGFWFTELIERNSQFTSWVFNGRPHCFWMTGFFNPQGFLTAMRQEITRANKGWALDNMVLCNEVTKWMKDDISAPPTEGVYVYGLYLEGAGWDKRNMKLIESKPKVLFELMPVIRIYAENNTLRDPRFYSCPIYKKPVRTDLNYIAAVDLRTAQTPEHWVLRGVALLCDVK

How the values were obtained:
[1] = target: FKBP8 (human (endogenous in tracheal epithelial cultures, HEK293, RPE-1)) (UniProt Q14318); test: co-IP; endogenous FKBP8 and DNAI1 immunoprecipitated from lysates of healthy human donor tracheal epithelial cultures (MucilAir, D17 ALI, immature cells), Protein G magnetic beads, immunoblot for DNAH5 and ZMYND10
[2] = target: T1, DNAI1 (human (endogenous in tracheal epithelial cultures)) (UniProt Q9UI46); test: as above
T1 sequence: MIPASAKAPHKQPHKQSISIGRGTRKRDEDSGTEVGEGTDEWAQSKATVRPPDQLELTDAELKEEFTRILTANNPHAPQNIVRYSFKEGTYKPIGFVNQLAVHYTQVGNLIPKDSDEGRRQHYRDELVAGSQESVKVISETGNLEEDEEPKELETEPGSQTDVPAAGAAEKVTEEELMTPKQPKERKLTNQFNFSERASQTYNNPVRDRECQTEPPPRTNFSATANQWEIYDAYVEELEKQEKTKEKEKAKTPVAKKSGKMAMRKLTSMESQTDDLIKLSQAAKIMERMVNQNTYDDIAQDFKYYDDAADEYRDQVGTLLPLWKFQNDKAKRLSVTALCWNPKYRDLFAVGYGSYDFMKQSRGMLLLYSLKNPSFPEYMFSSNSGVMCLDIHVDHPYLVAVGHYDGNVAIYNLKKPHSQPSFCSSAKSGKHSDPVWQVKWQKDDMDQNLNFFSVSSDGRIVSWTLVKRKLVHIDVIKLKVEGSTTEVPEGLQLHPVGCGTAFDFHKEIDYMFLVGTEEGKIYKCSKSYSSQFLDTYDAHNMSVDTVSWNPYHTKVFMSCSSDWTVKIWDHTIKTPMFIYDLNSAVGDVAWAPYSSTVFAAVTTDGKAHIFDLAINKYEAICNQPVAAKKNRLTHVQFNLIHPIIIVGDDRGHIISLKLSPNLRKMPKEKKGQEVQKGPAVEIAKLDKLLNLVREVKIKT

[3] = target: T2, DNAI2 (human (endogenous in nasal epithelial cells)) (UniProt Q9GZS0); test: proximity ligation; in situ PLA (Duolink) on PFA-fixed, permeabilised nasal brush epithelial cells of healthy human donors and of P7 control and Zmynd10-/- mice; antibody pairs DNAI2 + DNAH5 and DNAI2 + DNAH9; single-antibody control without signal; fewer foci, only cytoplasmic, in Zmynd10 mutants
T2 sequence: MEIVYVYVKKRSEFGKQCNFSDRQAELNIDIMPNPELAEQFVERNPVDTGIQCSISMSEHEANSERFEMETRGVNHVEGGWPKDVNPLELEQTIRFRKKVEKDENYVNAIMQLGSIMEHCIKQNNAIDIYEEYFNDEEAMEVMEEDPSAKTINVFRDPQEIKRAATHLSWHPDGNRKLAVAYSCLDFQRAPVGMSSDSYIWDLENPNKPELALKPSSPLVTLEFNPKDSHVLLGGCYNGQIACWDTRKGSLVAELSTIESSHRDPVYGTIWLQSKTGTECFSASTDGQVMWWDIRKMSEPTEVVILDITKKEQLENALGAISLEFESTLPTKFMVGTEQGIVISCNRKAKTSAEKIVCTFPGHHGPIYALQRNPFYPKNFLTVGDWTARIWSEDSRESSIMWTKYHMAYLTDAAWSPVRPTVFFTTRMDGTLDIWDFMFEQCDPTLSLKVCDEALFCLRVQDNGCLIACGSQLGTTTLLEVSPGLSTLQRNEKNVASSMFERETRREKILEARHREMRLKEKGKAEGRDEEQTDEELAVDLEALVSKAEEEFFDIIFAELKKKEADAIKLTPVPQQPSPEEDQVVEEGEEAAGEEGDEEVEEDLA

[4] = target: T3, DNAI2 (mouse (endogenous in testes, oviduct, trachea, nasal epithelium)) (UniProt A2AC93); test: co-IP; endogenous DNAI2 immunoprecipitated from mouse tissue extracts (testes P26, oviduct P7, trachea P7 and P90) of wild type and Zmynd10-/- animals, mild lysis buffer, Protein G magnetic beads, immunoblot for DNAI1 and DNAH5; DNAH5 co-precipitation 0.47 and 0.56 fold reduction in mutant P7 oviduct and trachea
T3 sequence: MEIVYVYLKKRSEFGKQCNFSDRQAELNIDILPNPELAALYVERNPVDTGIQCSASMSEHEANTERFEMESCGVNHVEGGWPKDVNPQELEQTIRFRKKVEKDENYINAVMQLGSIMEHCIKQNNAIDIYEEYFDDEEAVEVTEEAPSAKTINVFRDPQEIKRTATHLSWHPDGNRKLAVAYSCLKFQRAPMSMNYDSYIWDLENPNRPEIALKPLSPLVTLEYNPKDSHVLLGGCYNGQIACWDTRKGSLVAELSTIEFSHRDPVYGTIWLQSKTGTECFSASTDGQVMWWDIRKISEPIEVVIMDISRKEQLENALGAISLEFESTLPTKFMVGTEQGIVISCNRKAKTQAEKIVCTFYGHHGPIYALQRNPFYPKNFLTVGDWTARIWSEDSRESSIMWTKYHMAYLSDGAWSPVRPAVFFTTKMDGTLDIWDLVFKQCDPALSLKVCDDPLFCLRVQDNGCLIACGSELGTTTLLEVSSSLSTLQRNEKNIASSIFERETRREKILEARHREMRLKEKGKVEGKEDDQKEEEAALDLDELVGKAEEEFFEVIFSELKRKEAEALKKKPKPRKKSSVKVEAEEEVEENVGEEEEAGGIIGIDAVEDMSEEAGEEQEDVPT

[5] = target: T3, DNAI2 (mouse (endogenous in testes, oviduct, trachea, nasal epithelium)); test: proximity ligation; in situ PLA (Duolink) on PFA-fixed, permeabilised nasal brush epithelial cells of healthy human donors and of P7 control and Zmynd10-/- mice; antibody pairs DNAI2 + DNAH5 and DNAI2 + DNAH9; single-antibody control without signal; fewer foci, only cytoplasmic, in Zmynd10 mutants

| binding [1] | binding [2] | binding [5] | Substance | also measured |
| --- | --- | --- | --- | --- |
| binds | – | – | ZMYND10 (from UniProt O75800 1-440) | – |
| – | – | binds | DNAH5 (from UniProt Q8VHE6 1-4621) | binding [4]: binds |

The remaining lines, values behind:

| Substance | binding [1] | binding [2] | binding [5] | also measured |
| --- | --- | --- | --- | --- |
| DNAH5 (from UniProt Q8TE73 1-4624) | binds | binds | – | binding [3]: binds |
| FKBP8 (from UniProt Q14318 1-412) | – | no binding | – | – |
| DNAH9 (from UniProt B1AR51 1-4484) | – | – | binds | – |
